Assay results published in PubChem BioAssay AID1347423 (Functional Genomics Laboratory (NCATS/FGL), 2020).
About 210 (0.4%) of roughly 52,000 sequences were called active.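 How the source made its calls: active means gene whose silencing raises cell survival under the drug, median off-target-corrected z-score across its silencing RNAs 2 or more; inactive means the rest.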 The list shows a part of the results.

Assay: Resistance to Poly (ADP-Ribose) Polymerase inhibitor: Gene Identification via Genome-wide siRNA Screen
Details: mouse BRCA2 R2336H ES cells, olaparib, CellTiter-Glo viability; hits give high values
Outline: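 Genome-wide siRNA screen (3 siRNAs/gene, 20 nM) in mouse ES cells carrying hypomorphic BRCA2 R2336H; olaparib 500 nM added 48 h post-transfection, CellTiter-Glo viability 72 h later. Normalized to plate-median negative control; MAD z-scores, gene median, seed-adjusted.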

| Sequence | z-score |
| --- | --- |
| GGACAGAUGCCAUCUCAGUTT against Anxa7 | inactive: -0.122 |
| GGUUGCCUCAACUCCAUUGTT against Olfr1412 | inactive: -1.31 |
| GGCCCAGUGACUAUGGAAUTT against E130307M08Rik | inactive: -1.32 |
| GGAGAAGAAGAAAUCCAAATT against Scn11a | inactive: -1.11 |
| UGGACUGUAUUGAAAACCATT against AV284857 | inactive: -0.016 |
| GGCGAAGAAGAAUAAAAGATT against Lyar | inactive: 0.817 |
| GGAUGACUAUGUGAAUAUATT against 4933404G15Rik | inactive: -0.856 |
| GCCUGACUACUGAAGCUUGTT against 1810029B16Rik | inactive: 0.663 |
| GGCAGAAAAGAUGGAAAAUTT against B130050I23Rik | inactive: 0.469 |
| CCCAGGCUCCUAUUUGUUUTT against Calml3 | inactive: 0.446 |
| GGUCAAUGAGUUAGCUAUATT against Olfr1132 | inactive: 0.548 |
| GGCCUGGUAUAUAUCUGUCTT against Olfr6 | inactive: 0.106 |
| GGAUGUUUUAUUUCCGUACTT against 2310057D15Rik | inactive: 0.412 |
| GGAACUUUCCUUUUUUGUCTT against Serpinb5 | inactive: -0.565 |
| CGAAUCCUCACUAAAUUGGTT against Cnn3 | inactive: 1.72 |
| GGCGCAAAUACUUCUUCAUTT against Nrg1 | inactive: 1.4 |
| GGCCUCAAGAACUUUUUGCTT against 9830165K03Rik | inactive: -0.113 |
| GCAUUUGAACAGUGUGCCATT against Arch | inactive: 0.263 |
| GCUGACCUUCACUACUAUUTT against Lass6 | inactive: -0.847 |
| GGAUCUCGUGCGAAAAAAATT against Olfr809 | inactive: -0.802 |
| GGUGAUCCAGCUUUCUUGGTT against Tiaf2 | inactive: 0.147 |
| GGCUCUCCUGAUCCAAGCUTT against 1200015A19Rik | inactive: 0.682 |
| GGAGCUCACCAAAAUAGCUTT against Akr1c21 | inactive: 0.54 |
| GCCUUAAUGAGGGUUAUGCTT against Fbp1 | inactive: 1.29 |
| GCAGAAGAAGAAGGGUUCCTT against Emx1 | inactive: -0.354 |
| CCAGUAUAUUCUGAGGGUUTT against Isl1 | inactive: 0.841 |

| Sequence | z-score |
| --- | --- |
| GCUCUUAACAACGGGUGGATT against A130079P16Rik | inactive: -0.124 |
| CCCUAUACGACUAGCUCUGTT against 4732406D01Rik | inactive: 1.06 |
| GCCAGCUUACGAACAUUAATT against 2810465F10Rik | inactive: -0.0764 |
| UCACCGAAUGUCUUCUUCUTT against Olfr47 | inactive: 1.45 |
| CCUUGGACUUGAGUUCCAATT against D630042P16Rik | inactive: -0.645 |
| GGACAACAGCAAAACAUCUTT against Atoh1 | inactive: 2.44 |
| GGAUGAAUUGAUUGAGAUCTT against Sv2a | inactive: -0.0207 |
| GGUGAAUCGGUUUUCAGAUTT against C79267 | inactive: 0.474 |
| GGAACCUGCAUGAUAUAGGTT against Zfp617 | inactive: 0.777 |
| GGAAUGUCUAUCACAAUGGTT against V1re8 | inactive: 0.128 |
| GCUACUCCAAGGUGAAAGUTT against Sstk | inactive: 0.957 |
| GGAGGAGUGUGUGAAAGGATT against Terf2ip | inactive: -0.301 |
| GGACUUAAAAGAGGAGAUCTT against 4933434E20Rik | inactive: -0.477 |
| GGCUUACUACGACACAGACTT against Clk2 | inactive: -0.232 |
| GGUGUUUACACCCAGCACCTT against 4932411E22Rik | inactive: 0.268 |
| CCGUCAUGAUCUUAAAAGATT against Slc30a8 | inactive: 1.15 |
| GCAUUAGAUCAGACCAUUUTT against 1500035H01Rik | inactive: 2 |
| GCUGUCACUUUGAAUCCCUTT against Nrg1 | inactive: -0.309 |
| GGACUUAGCUUUGUUUCCUTT against 1110017C15Rik | inactive: -0.854 |
| GCAAACGAAAAACAGUGACTT against Nsf | inactive: -1.13 |
| GGGCUAUGCAAAUUUACAATT against Kdelc1 | inactive: -1.14 |
| GGAACAGUCCUGUACACCCTT against Gp49a | inactive: 0.807 |
| CCAUCAGAUUAUCUAUCUATT against Mapk11 | inactive: 0.433 |
| GGUAUAGCUUGGGCUAUAGTT against Olfr92 | inactive: 0.0939 |
| UCUUCGGUCAACUCUAUGGTT against Olfr969 | inactive: -2.35 |
| CCUUUUUGUUGUCUCACUATT against Olfr116 | inactive: -0.201 |

Random excerpt: 5 records from the list.

| Sequence | z-score |
| --- | --- |
| GGAGGAGUGUGUGAAAGGATT against Terf2ip | inactive: -0.301 |
| GGUAUAGCUUGGGCUAUAGTT against Olfr92 | inactive: 0.0939 |
| GGAACCUGCAUGAUAUAGGTT against Zfp617 | inactive: 0.777 |
| GCAAACGAAAAACAGUGACTT against Nsf | inactive: -1.13 |
| UCACCGAAUGUCUUCUUCUTT against Olfr47 | inactive: 1.45 |

(next part)

| Sequence | z-score |
| --- | --- |
| GGUGUGUGCCUUUUAUUUUTT against 2810037C03Rik | inactive: 1.2 |
| GGGUUUCUUCAUAACUCUUTT against 6530401P13 | inactive: 0.207 |
| GGUCAUCCGAUGCUUUGUATT against 4930515G01Rik | inactive: -1.66 |
| GGGUCAUUGUUUUUUCUGUTT against 2810037C14Rik | inactive: 0.562 |
| GCCGUGCGAUUUAAUGUGGTT against 1500041N16Rik | inactive: 1.18 |
| CCACUGCUUACUUCCUGUATT against Ii | inactive: -0.537 |
| GGCUCUGGGUGGUAUUCAUTT against Slc5a2 | inactive: 2.68 |
| GGUCCACAGAUUCUUCUAATT against Zfa | inactive: -0.793 |
| GGAGAUUUGUCAGAACCUCTT against Adrbk1 | inactive: -0.168 |
| GCUUUAAAUAGAGACUAUCTT against Sox30 | inactive: 0.795 |
| GGAAGAAGCCACCUUUUUUTT against Cd2 | inactive: -0.608 |
| GGCACUGGAACUAAUAUAUTT against Ormdl2 | inactive: -0.262 |
| GGUUAUUCCACCUCUUGCCTT against 2310028N02Rik | inactive: 0.145 |
| CGGCGGCAACAAUAACAAGTT against BC040774 | inactive: -0.274 |
| GCACUUAUGGACUUCCAGCTT against Cd2ap | inactive: 0.777 |
| GGGUCCUCUCCACAUCAAGTT against A230051G13Rik | inactive: -0.135 |
| GGAAGAACAGUUCAGCGGATT against Plekhk1 | inactive: 0.238 |
| GCCAAAUGAACUAGCAAUATT against Golph2 | inactive: 0.628 |
| GGAACCUAAACGAACAAGGTT against Col6a2 | inactive: 0.445 |
| GGAACACAAGCACCUGCAUTT against Corin | inactive: -1.43 |
| GGAUCACUGGCACCAAUGUTT against Clca1 | inactive: -1.91 |
| GGAUUUGUUCAAAUAACAGTT against 2700023B17Rik | inactive: -1.63 |
| GGAAGAUCGGAGACAAAGUTT against Pmaip1 | inactive: -1.04 |
| CGGAAUUUGAACGUGUCUUTT against Cdk9 | inactive: 0.631 |
| GGGCUACCAUAGUGACAAATT against Gja5 | inactive: 2.09 |
| GGAAGACACAUCACCAAAATT against Chaf1a | inactive: -2.73 |

| Sequence | z-score |
| --- | --- |
| GCCAUAGCUCGAGACUCUCTT against Tcfap2b | inactive: 0.684 |
| GUGGAAGAAGGAAAAGCCCTT against 2310006J04Rik | inactive: 0.116 |
| GCUCGAUCAUGGGCCUAUATT against 0610009I22Rik | inactive: -1.84 |
| GGGCAGCAAAGAAUUAACUTT against 2810004N20Rik | inactive: -0.568 |
| GGAGAGUGACAUCAUCGUATT against AW822216 | inactive: -0.104 |
| CCAAAACCUCUACCGUUACTT against Cyp3a25 | inactive: -0.55 |
| GGAGGUCGCUUCCUAUUACTT against Tat | active: 1.26 |
| GGAACAAAGACAUUGCUUUTT against Sf3a3 | inactive: -2.09 |
| GCUGCAACAUGACAUGUCGTT against AU022252 | inactive: 2.21 |
| GGCCAUCACACACAGAAACTT against Pla2g2f | inactive: 0.622 |
| UAUACCUUAGUGCUGAGGGTT against Olfr736 | inactive: -0.718 |
| GGAGCUGAUCCAGAACAGATT against Ncor2 | inactive: 2.68 |
| GCCAUAGGAAAUUGCUAUUTT against C130086A10 | inactive: 0.34 |
| GCCUAGGUUUGAUGAACUATT against Nlgn3 | inactive: -0.511 |
| GCUUUUGUAUACCUACUGUTT against AL022818 | inactive: -0.0986 |
| CCAGAGAUGACCGUCUUAATT against Hddc2 | inactive: -1.62 |
| GGCAAACAAUAAAGUGUGGTT against Bpgm | inactive: 0.0152 |
| GGAGGCAGCUCCUAUGAUGTT against Rbm28 | inactive: -1.08 |
| CGGCACACUAAGAAACGGATT against BC049697 | inactive: -0.616 |
| GCACUGUUCGUUUUUGUUUTT against Astn1 | inactive: -0.273 |
| CGACCAGAAGUGGUAUGUCTT against Adra2a | inactive: 1.03 |
| GAGAUCAACUUGGUGACGGTT against Cacng7 | inactive: -0.605 |
| GGUUCGACUGAAAACUUUCTT against Vamp2 | inactive: 1.03 |
| GCAAACCUUCGGUCUUGCCTT against Cd5l | inactive: -0.277 |
| GCCUCGUGAAUAAUUGAAATT against Ddt | inactive: 0.404 |
